Measured data: PubChem BioAssay AID504791 (Drosophila RNAi Screening Center, 2011)

Aim: 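Factors in Argonaute-based small RNA production and activity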 (primary screen)
System: Drosophila S2-derived reporter cells
Reagents: long dsRNA against Drosophila genes, about 150-250 ng dsRNA per well (siRNA assay); about 80-120 ng (miRNA assay)
Timing: about 5 days (siRNA assay); about 4 days (miRNA assay)
Conditions: copper sulfate induction of reporters: 25 µM (siRNA assay); 200 mM stated (miRNA assay), 1-2 days before reading
Measurement: 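Dual luciferase assay: Renilla to firefly signal ratio in each well, scaled to the mean ratio of its plate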
Rule for the call: 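First-pass picks had plate-scaled ratios over 1.5 for the siRNA assay, over 1.6 for the miRNA assay, or under 0.6; two distinct dsRNAs had to score alike on retest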
The screen tested about 23,000 reagents; this is a random part of those with a known target gene and a result. In the full data, 199 (0.86%) were called active. 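Plate-scaled ratios behind the calls are not deposited; printed light signals are raw; many rows marked increased or decreased are still called inactive.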 Names joined by + are all predicted targets of the reagent. No sequences are given here. Not given: the direction of the score.

gene knocked down,PubChem SID,"stable assay Renilla, run 1 (luminescence)","stable assay firefly, run 1 (luminescence)",Call
Gga (GeneID 31902),SID104198052,8322,4.03e5,inactive
SCCRO4 (GeneID 40231),SID104190463,6698,4.65e5,inactive
Loxl1 (GeneID 43712),SID104194095,6494,5.79e5,inactive
CG30056 (GeneID 246422),SID104201421,9094,5.89e5,inactive
CG32017 (GeneID 317823),SID104196975,5914,3.44e5,inactive
grp + CG31782 (retired record),SID104183333,19074,1.87e6,inactive
lt (GeneID 3355130),SID104183551,6694,4.79e5,inactive
CG10140 (GeneID 39511),SID104189496,5684,2.96e5,inactive
mRpL32 (GeneID 43698),SID104194271,6491,4.91e5,inactive
KCNQ (GeneID 36071),SID104185913,5635,2.84e5,inactive
KCNQ (GeneID 36071),SID104186022,5628,3.04e5,inactive
Mvk + CG33672 + spt4,SID104185148,5843,4.45e5,inactive
Mvk + CG33672 + spt4,SID104186420,8798,6.05e5,inactive
CG14756 (GeneID 35798),SID104186283,6540,4.01e5,inactive
Vps24 (GeneID 40542),SID104192124,5198,4.22e5,inactive
CG12607 (GeneID 38547),SID104188079,6238,6.19e5,inactive
RagA-B (GeneID 41071),SID104194242,9495,5.81e5,inactive
Best2 (GeneID 38727),SID104189504,5738,3.44e5,inactive
roq (GeneID 39818),SID104190019,8700,2.58e5,inactive
HP5 (GeneID 32090),SID104199565,7578,5.05e5,inactive
Tmf (GeneID 31629),SID104198160,5195,3.07e5,inactive
Alp12 (GeneID 35218),SID104182307,6582,4.74e5,inactive
CG34225 (GeneID 5740807),SID104185062,6243,4.07e5,inactive
CG10809 (GeneID 39159),SID104189594,5851,4.09e5,inactive
CG8850 (GeneID 36331),SID104187079,6134,3.54e5,inactive
hoka (GeneID 38588),SID104188105,6868,5.31e5,inactive
MED30 (GeneID 38078),SID104188308,8860,3.17e5,inactive
MED30 (GeneID 38078),SID104202492,6715,4.16e5,inactive
Polr2K (GeneID 5740790),SID104185327,4172,3.40e5,inactive
yem (GeneID 43439),SID104194657,6924,3.70e5,inactive
yem (GeneID 43439),SID104196889,7158,3.82e5,inactive
CG13991 (GeneID 33868),SID104182115,7954,4.12e5,inactive
CG10713 (GeneID 39508),SID104189578,5272,2.85e5,inactive
CG11858 (GeneID 43044),SID104194204,5188,4.63e5,inactive
CG31680 (GeneID 318881),SID104201512,7991,5.23e5,inactive

The list goes on, starting with the last 3 of the part before.
gene knocked down,PubChem SID,"stable assay Renilla, run 1 (luminescence)","stable assay firefly, run 1 (luminescence)",Call
CG10713 (GeneID 39508),SID104189578,5272,2.85e5,inactive
CG11858 (GeneID 43044),SID104194204,5188,4.63e5,inactive
CG31680 (GeneID 318881),SID104201512,7991,5.23e5,inactive
Zip42C.2 (GeneID 35580),SID104184796,5579,3.21e5,inactive
Kap-alpha3 (GeneID 41158),SID104196768,6504,3.40e5,inactive
CG15152 (GeneID 35082),SID104182245,7262,3.94e5,inactive
boil (GeneID 31416),SID104197664,6123,3.19e5,inactive
CG7378 (GeneID 32888),SID104199833,6075,3.82e5,inactive
CG33269 (GeneID 2768983),SID104190377,6254,2.74e5,inactive
spz6 (GeneID 37956),SID104184325,42412,2.39e6,inactive
CG18088 (GeneID 34219),SID104182446,7310,3.42e5,inactive
kon (GeneID 35104),SID104181825,6328,1.21e6,inactive
Tmx3 (GeneID 39775),SID104190263,7936,3.98e5,inactive
CG10352 (GeneID 32147),SID104199145,6326,5.85e5,inactive
ppk20 (GeneID 43486),SID104196052,6571,3.81e5,inactive
Dlic (GeneID 32057),SID104199616,8195,5.33e5,inactive
CG4630 (GeneID 36458),SID104186666,8310,5.91e5,inactive
CG15225 (GeneID 37354),SID104184024,7460,4.23e5,inactive
CG15225 (GeneID 37354),SID104202626,3988,3.09e5,inactive
CG31832 (GeneID 318970),SID104201643,8318,4.57e5,inactive
rdhB (GeneID 42614),SID104195982,10475,3.90e5,inactive
CG43328 (GeneID 246625),SID104185432,7419,4.74e5,inactive
Not11 (GeneID 37839),SID104183996,5820,4.79e5,inactive
CAH2 (GeneID 39390),SID104190538,6178,2.94e5,inactive
btl (GeneID 39564),SID104191123,7783,5.21e5,inactive
